Source: PubChem BioAssay AID504327 (National Center for Advancing Translational Sciences (NCATS), 2011)
Values joined by “and” are separate entries in the source; they are usually repeats but may differ in a detail not shown here. Equal entries are not always repeated. The whole screen tested about 390,000 compounds, of which about 820 (0.21%) were called active. Inconclusive results, whose numbers are uncertain, are shown with a selection of clear calls. The call rests on the fitted dose curve; in most records, active means well fitted inhibition curve with a large enough effect; inconclusive means small, poorly fitted or top-dose-only effect, or another doubt; inactive means no such curve, though single readings can be large or run the other way. Potencies of inconclusive entries are doubtful fits and often do not repeat.

Sequences of proteins named here, by UniProt entry; tags and fusion partners are left off.
UniProt Q92830, whole entry, looked up: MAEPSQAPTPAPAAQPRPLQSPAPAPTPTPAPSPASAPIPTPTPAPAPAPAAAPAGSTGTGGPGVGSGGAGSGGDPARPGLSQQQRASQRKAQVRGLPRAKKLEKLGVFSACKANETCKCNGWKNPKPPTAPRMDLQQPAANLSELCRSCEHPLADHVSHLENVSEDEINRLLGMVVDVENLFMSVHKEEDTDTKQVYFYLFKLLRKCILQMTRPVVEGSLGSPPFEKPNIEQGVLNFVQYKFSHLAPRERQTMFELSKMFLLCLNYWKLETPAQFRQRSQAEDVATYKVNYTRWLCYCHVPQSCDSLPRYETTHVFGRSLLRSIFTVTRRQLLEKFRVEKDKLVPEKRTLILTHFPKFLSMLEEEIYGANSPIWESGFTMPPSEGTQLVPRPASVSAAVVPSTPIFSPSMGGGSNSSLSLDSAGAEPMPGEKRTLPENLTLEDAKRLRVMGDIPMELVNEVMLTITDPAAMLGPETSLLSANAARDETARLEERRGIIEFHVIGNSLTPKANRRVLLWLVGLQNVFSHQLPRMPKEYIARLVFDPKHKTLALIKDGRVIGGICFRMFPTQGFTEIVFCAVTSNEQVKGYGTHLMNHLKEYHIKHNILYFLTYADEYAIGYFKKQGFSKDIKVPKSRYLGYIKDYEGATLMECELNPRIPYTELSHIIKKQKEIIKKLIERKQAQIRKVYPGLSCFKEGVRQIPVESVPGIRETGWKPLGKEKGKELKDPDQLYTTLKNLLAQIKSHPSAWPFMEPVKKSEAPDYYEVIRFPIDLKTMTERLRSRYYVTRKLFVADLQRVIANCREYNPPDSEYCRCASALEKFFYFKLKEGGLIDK

biological target: Histone acetyltransferase KAT2A (Homo sapiens) (UniProt Q92830); experiment: qHTS Assay for Inhibitors of GCN5L2; settings: GCN5L2 HAT assay, ThioGlo1 CoA-SH fluorescence; activity change, negative = inhibition: at 58.9 µM (top of the series) unless noted
Description: Histone acetyltransferase (HAT) enzymes transfer a […] group from acetyl-coenzyme A to the epsilon-amino group of conserved lysine residues of N-terminal histone tails. Acetylation results in charge neutralization of this positively charged amino acid, decreasing interactions with the […] backbone and making the DNA more accessible for transcription. HATs have been recognized as an emerging drug target for treatment of cancer, diabetes, asthma, chronic obstructive pulmonary disease, cardiac disease, and viral infection. Protein identified with HAT activity include the […] like 2 (GCN5L2, a.ka. Histone acetyltransferase KAT2A) which acetylates histone H3 at Lys9, 14, 18, 13, and to lesser extent histones H4 and H2B. This activates transcription of the gene by modulating chromatin structure and installing the acetyllysine recognition mark for bromodomain-containing coactivator proteins.
A quantitative high throughput screen was developed to identify small molecule inhibitors. The assay is based on the principle that it measures formation of reduced CoA with the pro-fluorescent maleimide derivative ThioGlo1 that becomes fluorescent upon reaction with the free thiol of CoA.
A large number of artifacts are expected in this primary screen, compounded by the assay format (fluorescent artifacts) and by the high top concentration tested for each substance. This BioAssay data deposition should be used with caution, and counterscreen and secondary assay validation is essential since very few actives from the primary screen are expected to be true inhibitors of GCN5L2.
[2] Yasgar, et al. Compound Management for Quantitative High-Throughput Screening. JALA. 2008 Apr;13(2):79-89.
[3] Inglese, et al. Quantitative high-throughput screening: a titration-based approach that efficiently identifies biological activities in large chemical libraries. Proc Natl Acad Sci. 1;103(31):11473-8. 2006. PMID: 16864780
NIH Molecular Libraries Probe Production Network [MLPCN]
NIH Chemical Genomics Center [NCGC]
Structural Genomics Consortium (SGC)
To each well of a 1,536w plate, 3ul of GCN5L2 (final concentration 20nM, in 50mM HEPES, 0.1mM EDTA (pH 7.5), 0.01% Tween-20 buffer) are added using a Kalypsys dispenser. Only buffer is added to some wells as a control. A Kalypsys pin-tool transferred 23nl of library compound solution in DMSO to each well, as well as the control inhibit garcinol. . Following a 15 min incubation of enzyme with compounds at room temperature, 1ul mixture of ThioGlo1 (50uM final), H3(1-25) peptide (75uM final), and Acetyl-CoA (70uM final) is added. Plates are read immediately on the ViewLux (PerkinElmer) (Ex340nm/Em540nm) for a 0 min read, incubated for 20 min at room temperature, and read again on the ViewLux with the same settings. The initial read was carried out to identify compounds that are potentially fluorescent.
On the % scale 0 is the no-effect control and ±100 the full control effect; potency means the concentration at half of the fitted maximal effect.

SMILES	Potency	activity change, negative = inhibition
COCCN1CCN(C(=O)c2cc(COc3ccc(F)cc3Cl)on2)CC1	inconclusive: 35.5 µM [inhibitor, single point]	–
O=C(CCS(=O)(=O)c1cc(Br)cc2c1N(C(=O)C1CC1)CC2)Nc1ccc(F)cc1	–	inactive: -0.108%
COC(=O)CCC(=O)c1oc2ccc(Cl)cc2c1NC(=O)CCCN1C(=O)c2ccccc2C1=O	–	inactive: 2.02%
COc1ccc2c(c1)C(=NNc1ccc(C(=O)O)cc1)c1cc(OC)ccc1-2	inconclusive: 31.6 µM [inhibitor, single point]	–
CCc1oc2ccccc2c1C(=O)c1cc(I)c(O)c(I)c1	active: 8.91 µM	–
CCCOc1ccc(C(=O)NNC(=S)NC(=O)c2cccs2)cc1	–	inactive: -8.82%
C=CCc1ccc(OCc2ccc(C(=O)Nc3ccc(NC(C)=O)cc3)o2)c(OC)c1	inconclusive: 3.98 µM [inhibitor, single point]	–
Cc1cccc(C(C)C)c1NC(=O)c1cc2ccccc2o1	inconclusive: 39.8 µM [inhibitor, single point]	–
COc1ccc(NC(=O)Nc2nnc(-c3ccccc3SCc3ccccc3)s2)cc1	–	inactive: -5.8% [at 0.501 µM]
Cc1ccc(C(C(=O)NC2CCCCC2)N(Cc2ccccc2)C(=O)Cc2c[nH]c3ccccc23)o1 (centres undefined)	–	inactive: -10.9%
CCN1CCc2c(sc(NC(=O)c3ccc4ccccc4c3)c2C(N)=O)C1	inconclusive: 5.62 µM [inhibitor, partial curve]	–
c1ccc(N2N=C(c3cccs3)CC2c2ccco2)cc1 (centres undefined)	inconclusive: 39.8 µM [inhibitor, single point]	–
CCNc1cc2oc(=O)c(CN3CCOCC3)c(C)c2cc1C	inconclusive: 28.2 µM [inhibitor, single point]	–
COc1ccc(-c2ncc(CN3CCC(CO)(Cc4cccc(OC)c4)CC3)cn2)cc1	–	inactive: -9.98%
NC(=O)c1ncn([C@@H]2O[C@H](CO)[C@@H](O)[C@H]2O)c1O	inconclusive: 28.2 µM [inhibitor, single point] and inconclusive: 25.1 µM [inhibitor, single point]	–
CC1CCCCN1Cc1nc2ccccc2c(=O)[nH]1 (centres undefined)	inconclusive: 0.708 µM [inhibitor, single point]	–
Cc1ccc(NC(=O)c2cnn(-c3ccccc3)c2C)cc1C	inconclusive: 0.316 µM [inhibitor, full curve, poor fit]	–
CCn1c2ccccc2c2cc(N)ccc21	–	inactive: 9.29%
CCc1cc2c(-c3ccccc3)cc(=O)oc2c2c1OCN(Cc1ccc(F)cc1)C2	–	inactive: -16.3%
COc1ccccc1-c1ccc(/C=C2/C=C(CC(C)C)OC2=O)o1	inconclusive: 28.2 µM [inhibitor, single point]	–
C[C@@]12CCC=C[C@H]1[C@H](c1ccc(C(F)(F)F)cc1)N(Cc1ccccc1)C2=O	inconclusive: 6.31 µM [inhibitor, partial curve, poor fit]	–
CC(NC(=O)c1ccc(F)cc1)c1ccc2c(c1)CCCC2 (centres undefined)	–	inactive: 9.05%

SMILES	Potency	activity change, negative = inhibition
COc1ccc(CCNC(=O)c2cnc(Cl)c(Cl)c2)cc1	inconclusive: 0.631 µM [inhibitor, full curve, poor fit]	–
CCCOc1ccc(N/C=C/C(=O)c2cc(OC)c(OC)c(OC)c2)cc1	inconclusive: 3.16 µM [inhibitor, single point]	–
CSCc1nnc(NC(=O)c2ccc(S(=O)(=O)N(CC(C)C)CC(C)C)cc2)o1	inconclusive: 7.08 µM [inhibitor, single point]	–
Cc1ccc(C(=O)O)cc1NC(=O)C1=CSCCO1	–	inactive: -1.63%
CS(=O)(=O)N(CC(=O)N1CCN(Cc2ccccc2)CC1)c1ccccc1F	inconclusive: 0.1 µM [inhibitor, full curve, poor fit]	–
C/C=C(/CC[C@@H](C)[C@H]1CCC2C3=CC[C@H]4[C@H](C)[C@@H](O)CC[C@]4(C)C3CC[C@@]21C)C(C)C (some centres undefined)	inconclusive: 39.8 µM [inhibitor, single point]	–
C=CCn1c(=S)sc2c(=O)[nH]c(C)nc21	inconclusive: 6.31 µM [inhibitor, single point]	–
CC(C)=CC(=O)N1CCC(n2nccc2NC(=O)CCc2ccccc2)CC1	inconclusive: 3.55 µM [inhibitor, partial curve, poor fit]	–
CC1(C)OC(=O)C(=CNc2cccc(C(=O)O)c2)C(=O)O1	inconclusive: 0.891 µM [inhibitor, single point]	–
CCN1C(=O)[C@H]2[C@@H](c3ccc(-c4ccccc4)c(OC)c3)N[C@@](Cc3ccccc3)(C(=O)OC)[C@H]2C1=O	–	inactive: -18.2%
CC1CC(=O)N(CC(=O)N2CCCC2)c2ccccc2S1 (centres undefined)	inconclusive: 25.1 µM [inhibitor, single point]	–
Cc1ccc(/C=N\NC(=O)c2cc(OCC(F)(F)F)ccc2OCC(F)(F)F)cc1	inconclusive: 7.08 µM [inhibitor, single point]	–
COC(=O)c1cccc(C(=O)N2CCCC(CCC(=O)N(C)CCc3ccccn3)C2)c1 (centres undefined)	inconclusive: 7.08 µM [inhibitor, single point]	–
O=C(Nc1cccc(-c2csc(Nc3ccccc3)n2)c1)c1ccccc1	–	inactive: -25.3%
Cc1ccc(S(=O)(=O)c2c(C(=O)c3ccccc3)cnc3cc4c(cc23)OCCO4)cc1	inconclusive: 20 µM [inhibitor, single point]	–
Cc1cc2ccccc2n1CCNC(=O)c1cc(C(F)(F)F)cc(C(F)(F)F)c1	–	inactive: 27.2%
O=C(CNc1ccccc1OC(F)F)N1CCc2ccccc21	inconclusive: 0.794 µM [inhibitor, single point]	–
COCCN(C(=O)COC(=O)c1cccs1)c1c(N)n(Cc2ccccc2)c(=O)[nH]c1=O	inconclusive: 2.51 µM [inhibitor, full curve, poor fit]	–
NC(=S)n1[nH]c(-c2ccc([N+](=O)[O-])cc2)c(N=Nc2cccc([N+](=O)[O-])c2)c1=O	inconclusive: 39.8 µM [inhibitor, single point]	–
Nc1ccc(-c2nc3ccc(N)cc3o2)cc1	inconclusive: 25.1 µM [inhibitor, partial curve]	–
CCc1c(C(=O)NC(C)C2CCCO2)csc1C (centres undefined)	inconclusive: 28.2 µM [inhibitor, single point]	–
O=C(c1noc2c1CCCCC2)N1CCN(c2cccc(C(F)(F)F)c2)CC1	–	inactive: -3.56%

SMILES	Potency	activity change, negative = inhibition
Cc1ccc(C(=O)Nc2ccc(S(=O)(=O)O)c3cc(S(=O)(=O)O)cc(S(=O)(=O)O)c23)cc1NC(=O)c1cccc(NC(=O)Nc2cccc(C(=O)Nc3cc(C(=O)Nc4ccc(S(=O)(=O)O)c5cc(S(=O)(=O)O)cc(S(=O)(=O)O)c45)ccc3C)c2)c1	inconclusive: 25.1 µM [inhibitor, single point]	–
Cn1c(SCC(=O)N/N=C/C=C/c2ccco2)nc2ccccc21	inconclusive: 35.5 µM [inhibitor, single point]	–
Cn1cc(C2=C(c3ccc(Cl)cc3Cl)C(=O)NC2=O)c2ccccc21	inconclusive: 35.5 µM [inhibitor, single point]	–
CC1CCc2sc(C(=O)NCCCn3ccnc3)cc2C1 (centres undefined)	inconclusive: 3.55 µM [inhibitor, single point]	–
COc1ccc(/C=C/CN2CCN(Cc3ccc(F)cc3)C(CCO)C2)cc1 (centres undefined)	inconclusive: 39.8 µM [inhibitor, single point]	–
CCc1cc(=O)oc2cc(C)c(CN3CCCC3)c(O)c12	inconclusive: 12.6 µM [inhibitor, partial curve]	–
C=CCN(c1ccc(C(=O)Nc2cccc([N+](=O)[O-])c2)cc1)S(C)(=O)=O	inconclusive: 31.6 µM [inhibitor, single point]	–
Cc1cccc(/C=N/NC(=O)C(C)Nc2cccc3ccccc23)n1 (centres undefined)	–	inactive: 0.139%
CCCc1cc(=O)oc2cc(OCC(=O)NCC3CCC(C(=O)O)CC3)ccc12 (centres undefined)	inconclusive: 6.31 µM [inhibitor, single point]	–
COc1ccccc1NC(=O)Cn1c(SCC(=O)N(C)c2ccccc2)nc2ccccc21	–	inactive: -0.107%
O=C(CSc1nnc(SCc2ccccc2)s1)NNC(=S)Nc1ccccc1	inconclusive: 39.8 µM [inhibitor, partial curve, poor fit]	–
COc1ccc(C(=O)NC(C)c2nnc(SCc3ccc(Cl)c(Cl)c3)n2C)cc1 (centres undefined)	inconclusive: 0.501 µM [inhibitor, single point]	–
CN(C)CC(O)COc1ccc(C(C)(C)c2ccc(OCC(O)CN(C)C)cc2)cc1 (centres undefined)	inconclusive: 39.8 µM [inhibitor, single point]	–
N#Cc1c(-c2ccccc2)nc(SCC(=O)Nc2ccc(OC(F)(F)Cl)cc2)[nH]c1=O	inconclusive: 22.4 µM [inhibitor, partial curve, poor fit]	–
O=C(c1cccc2ccccc12)C1CCCN(C(=O)CCCn2cncn2)C1 (centres undefined)	inconclusive: 39.8 µM [inhibitor, single point]	–
O=C1C=C(O)c2c(O)cccc2C1=O	inconclusive: 0.447 µM [inhibitor, full curve, poor fit]	–
CCOC(=O)c1sc(NC(=O)c2cc(-c3ccccc3)nc3ccccc23)c(C#N)c1C	inconclusive: 28.2 µM [inhibitor, single point]	–
Cc1cc(C)n2nc(C(=O)N3CCCC(N4CCN(c5ccccc5C)CC4)C3)cc2n1 (centres undefined)	inconclusive: 0.708 µM [inhibitor, full curve, poor fit]	–
CC1CCCCN1Cc1c(O)ccc2c(=O)c(-c3nc4ccccc4s3)coc12 (centres undefined)	–	inactive: 1.43%
N#C/C(=C\c1ccccc1C(F)(F)F)C(=O)Nc1ccccc1	–	inactive: -2.15%

Of the compounds above, these have a nitro group on carbon.
SMILES	Potency	activity change, negative = inhibition
NC(=S)n1[nH]c(-c2ccc([N+](=O)[O-])cc2)c(N=Nc2cccc([N+](=O)[O-])c2)c1=O	inconclusive: 39.8 µM [inhibitor, single point]	–
C=CCN(c1ccc(C(=O)Nc2cccc([N+](=O)[O-])c2)cc1)S(C)(=O)=O	inconclusive: 31.6 µM [inhibitor, single point]	–
